# From PubChem BioAssay AID493014 (National Center for Advancing Translational Sciences (NCATS), 2011)
# Some of the results follow. The main result of the screen is listed elsewhere. These columns were measured beside it and carry no call. The list favours compounds with an active or inconclusive main result. Potencies come from curve fits of mixed quality, noted in brackets.
# Assay: qHTS Assay to Find Inhibitors of Chronic Active B-Cell Receptor Signaling
# Conditions: ABC-DLBCL IkBa-CBG/CBR reporter, luminescence ratio (green luciferase fused to IkBa over red control in TMD8 lymphoma cells), 4 h
# Outline: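 Cell line TMD8 (human ABC DLBCL), stably expressing tet-inducible CBG68-IkBa fusion and CBR; IMDM/0.5% FBS; cpd up to 46 uM; dox induction, 4 h, 37C/5% CO2; dual luminescence; green/red ratio; MG132 control.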
# [1] = measured here: CBR red luminescence, cell number
# [2] = measured here: IkBa-CBG green luminescence
Structure (SMILES),AC50 [1],AC50 [2]
CCC1=NN2C(=N)/C(=C/c3cc(C)n(-c4ccccc4)c3C)C(=O)N=C2S1,"3.16 µM [falling, single point]",
O=C(NC1=NCCS1)C1CCN(S(=O)(=O)c2cc([N+](=O)[O-])ccc2Cl)CC1,,"23.1 µM [falling, partial curve, poor fit]"
CC1CCN(c2c(NCc3ccc(C(=O)NCc4cccnc4)cc3)c(=O)c2=O)CC1,"25.9 µM [rising, single point]",
COc1ccc(-c2ccc(CCC(=O)O)n2-c2ccccc2O)cc1,,"22.4 µM [falling, single point]"
O=c1c2ccccc2nc(SCc2nc(-c3ccccc3)no2)n1-c1ccc(F)cc1,"6.51 µM [rising, single point]",
CC(C)C[C@H](NC(=O)c1nc[nH]c1C(=O)NCC(=O)OC(C)(C)C)C(=O)OC(C)(C)C,"20 µM [falling, partial curve, poor fit]",
CCn1cc(C(=O)N[C@H](C(=O)NCCCOC)C(C)C)c(=O)c2cc3c(cc21)OCO3,"2.82 µM [falling, partial curve]",
COc1cccc(/C=C/C(=O)NNC(=O)c2ccco2)c1OC,"20.6 µM [falling, partial curve, poor fit]",
COc1cc(OC)c(C(=O)NNC(=O)c2ccccc2-n2cccc2)cc1OC,"5.17 µM [falling, single point]",
CC1=Nc2ccccc2/C1=C/c1sc(=O)n(CC(=O)N2CCCC2)c1O,"3.55 µM [falling, full curve]",
O=C(Nc1nccs1)C(NS(=O)(=O)c1ccc(Br)s1)c1ccccc1 (configuration not stated),"35.5 µM [falling, single point]",
CCOC(=O)CC(=O)CSc1nc(C)cc(-c2cccnc2)c1C#N,"11.6 µM [rising, partial curve, poor fit]",
O=C(O)c1cccc(NC2=C(Cl)C(=O)c3ccccc3C2=O)c1,"1.12 µM [falling, full curve]",
O=C(O)c1ccc(-c2ccccc2)[nH]1,"3.98 µM [rising, partial curve, poor fit]",
Cc1cccc(Oc2nc3ccccn3c(=O)c2/C=C(\C#N)C(=O)NC2CCS(=O)(=O)C2)c1 (configuration not stated),"25.9 µM [falling, partial curve, poor fit]",
NC(=S)N=Nc1c(O)n(CC(=O)Nc2ccccc2)c2ccccc12,"3.98 µM [rising, single point]",
COc1ccc(C2=CSC3=NCCN23)cc1Cl,"35.5 µM [rising, single point]","11.2 µM [falling, partial curve, poor fit]"
C/C=C\C=C\C(=O)Nc1cccc(C2=NOC3(C2)C[C@@H](C(N)=O)N(C(=O)C(c2ccccc2)c2ccccc2)C3)c1 (some centres not stated),"15.8 µM [falling, partial curve, poor fit]",
COc1ccccc1NC(=O)CN1C(=O)c2ccccc2Sc2ccc(C(=O)N3CCCC3)cc21,"11.2 µM [falling, partial curve, poor fit]",
O=S(=O)(Nc1ccc(Cc2ccncc2)cc1)c1ccc(Cl)c(Cl)c1,"25.1 µM [falling, single point]",
CC(C)(C)OC(=O)N1CCC(C(=O)Nc2ccc(C(=O)N3CCOCC3)cc2)CC1,"0.517 µM [rising, full curve, poor fit]",
CCCC(=O)c1ccc(N2CCC(C)CC2)c(F)c1,"29.1 µM [rising, single point]",

Structure (SMILES),AC50 [1],AC50 [2]
CCCCNC(=O)Nc1cc(C(=O)OC)ccc1C,"35.5 µM [rising, single point]",
O=C(N/N=C1/CCSC1)c1cc(Br)ccc1O,"0.891 µM [falling, full curve]",
O=C(NCCO)C1(c2ccc(Cl)cc2)CCCC1,"2.91 µM [rising, single point]",
CCCCC#Cc1cncc(C(=O)NN)c1,"3.55 µM [falling, partial curve]",
Oc1ccc(/C=N/Nc2cccc(Cl)n2)c(O)c1,"8.91 µM [falling, partial curve, poor fit]",
O=C(Nc1ncnc2sc3c(c12)CCCCC3)c1ccc(F)cc1,"29.1 µM [rising, single point]",
O=C(CS(=O)(=O)Cc1ccccc1)N1CCc2ccccc2C1,"0.82 µM [rising, partial curve, poor fit]",
COCc1cc(C)nc(N2CCNCC2)c1C#N,"4.61 µM [rising, full curve, poor fit]",
O=C(O)Cc1ccc(C(=O)CSc2ccccc2)s1,"35.5 µM [falling, single point]",
Fc1ccc(-c2csc(=S)[nH]2)cc1,,"35.5 µM [falling, single point]"
COc1ccccc1-c1cc(C(=O)N/N=C\c2cn(C)nc2C)c2ccccc2n1,"3.26 µM [rising, single point]",
CN(CCO)c1ccc(-c2n[nH]c(=O)c3ccccc23)cc1[N+](=O)[O-],"12.6 µM [falling, single point]",
Cc1ccnc2c1ccc1c(C)ccnc12,"29.1 µM [falling, single point]",
CCC(=O)c1ccc(OCC(=O)N2CCc3cc(OC)c(OC)cc3C2)cc1,"5.8 µM [rising, single point]",
CN(C)c1cc(NC(=O)CNC(C)(C)C)c2ccccc2n1,"11.2 µM [falling, partial curve, poor fit]",
CC(=O)Nc1cccc(NC(=O)c2cc(C)on2)c1,"20.6 µM [falling, partial curve]",
COc1cccc(CN2CC(C(=O)NCc3ccc(Cl)s3)CCC2=O)c1 (configuration not stated),"11.2 µM [falling, partial curve, poor fit]",
O=C(COC(=O)c1ccc(O)cc1O)NC1CCCCCC1,"29.1 µM [falling, single point]",
C=CCn1c(=O)/c(=C/c2ccc(Cl)cc2)s/c1=C(/C#N)c1nnc2n1CCCCC2,"8.2 µM [rising, partial curve, poor fit]",
COc1ccccc1C(=O)N(CCC1CCCN1C)c1nc2ccccc2s1 (configuration not stated),"3.55 µM [falling, full curve]",
O=C(/C=C/c1ccco1)N1CCN(S(=O)(=O)c2cccc([N+](=O)[O-])c2)CC1,"3.26 µM [rising, partial curve]",
CCOCc1[nH]c(=S)[nH]c(=O)c1Cc1ccc(OC(C)C)cc1,"4.47 µM [rising, full curve, poor fit]",

Structure (SMILES),AC50 [1],AC50 [2]
CCOCC(=O)Nc1ccccc1C(=O)OCC,"6.51 µM [rising, single point]",
Cc1ccc(C(=O)O)cc1NC(=O)c1cccs1,"6.51 µM [falling, single point]",
O=C(Nc1ccc2c(c1)OCCO2)c1cccc(C(=O)Nc2ccc3c(c2)OCCO3)c1,"35.5 µM [falling, single point]",
O=C(COC(=O)/C=C/c1cccc(F)c1)Nc1ncccn1,"0.708 µM [rising, full curve, poor fit]",
O=C(CN(C(=O)CCC(=O)Nc1nccs1)c1ccccc1F)NCCc1ccccc1,,"14.1 µM [rising, partial curve, poor fit]"
O=C(CN1C2=NCCN2c2ccccc21)c1ccc(Br)cc1,"14.1 µM [falling, single point]",
O=C(Cc1ccccc1)NCc1ccc2c(c1)OCO2,"16.4 µM [falling, single point]",
O=C(COC(=O)/C=C/c1ccc(OC(F)F)cc1)NC1CCCCC1,"0.00461 µM [rising, full curve, poor fit]",
COc1ccc(C2=NOC(C(=O)NCc3ccco3)C2)cc1 (configuration not stated),,"29.1 µM [falling, single point]"
COc1ccc(C(C)=O)cc1CSc1nc(NCCc2ccccc2)c2ccccc2n1,"6.31 µM [rising, single point]",
COCCNCCCCOc1ccc(Br)cc1C,"16.4 µM [falling, single point]",
CC1CCCN(C(=O)c2ccc(S(=O)(=O)Nc3ccccc3Cl)cc2)C1 (configuration not stated),"0.251 µM [rising, full curve, poor fit]",
COc1ccc(CCNC(=O)Nc2ccccc2[N+](=O)[O-])cc1,"35.5 µM [falling, partial curve, poor fit]",
COc1cccc(OCc2nc3ncc(Br)cc3[nH]2)c1,"1.3 µM [rising, partial curve]",
CC1(C)CNC(=O)c2sc(NC(=O)c3ccccc3Cl)nc2C1,"6.31 µM [falling, partial curve]",
FC(F)(F)c1cccc(-c2nn[nH]n2)c1,"2.51 µM [rising, full curve, poor fit]",
COc1ccc2nc(SC)c(C#N)cc2c1,"35.5 µM [falling, single point]",
COc1ccc(Cl)cc1NC(=O)NCC1CCN(Cc2cc(C)ccc2C)CC1,"25.1 µM [falling, single point]",
O=C(Nc1nc(COc2ccccc2)cs1)C1CCC1,"0.651 µM [rising, full curve, poor fit]",
Cc1cccc(CCNC(=O)C2CCN(S(=O)(=O)c3c(C)noc3C)CC2)c1,"0.517 µM [falling, full curve, poor fit]",
COc1ccc2nc(Cl)c(C#N)cc2c1,,"11.2 µM [rising, partial curve, poor fit]"
Cc1cccc(NC(=O)NCc2ccc3c(c2)cc(C)n3C)c1,"23.1 µM [rising, partial curve, poor fit]",

# A draw from above in order of number of heavy atoms, rising.
Structure (SMILES),AC50 [1],AC50 [2]
FC(F)(F)c1cccc(-c2nn[nH]n2)c1,"2.51 µM [rising, full curve, poor fit]",
COc1ccc2nc(SC)c(C#N)cc2c1,"35.5 µM [falling, single point]",
COCCNCCCCOc1ccc(Br)cc1C,"16.4 µM [falling, single point]",
O=C(Cc1ccccc1)NCc1ccc2c(c1)OCO2,"16.4 µM [falling, single point]",
O=C(CN1C2=NCCN2c2ccccc21)c1ccc(Br)cc1,"14.1 µM [falling, single point]",
CCOCc1[nH]c(=S)[nH]c(=O)c1Cc1ccc(OC(C)C)cc1,"4.47 µM [rising, full curve, poor fit]",
O=C(COC(=O)/C=C/c1ccc(OC(F)F)cc1)NC1CCCCC1,"0.00461 µM [rising, full curve, poor fit]",
CC1CCCN(C(=O)c2ccc(S(=O)(=O)Nc3ccccc3Cl)cc2)C1 (configuration not stated),"0.251 µM [rising, full curve, poor fit]",
Cc1cccc(CCNC(=O)C2CCN(S(=O)(=O)c3c(C)noc3C)CC2)c1,"0.517 µM [falling, full curve, poor fit]",
COc1ccc(Cl)cc1NC(=O)NCC1CCN(Cc2cc(C)ccc2C)CC1,"25.1 µM [falling, single point]",
O=C(Nc1ccc2c(c1)OCCO2)c1cccc(C(=O)Nc2ccc3c(c2)OCCO3)c1,"35.5 µM [falling, single point]",

# Arranged by SMILES length (low to high): some entries from above
Structure (SMILES),AC50 [1],AC50 [2]
O=C(O)Cc1ccc(C(=O)CSc2ccccc2)s1,"35.5 µM [falling, single point]",
COc1cccc(OCc2nc3ncc(Br)cc3[nH]2)c1,"1.3 µM [rising, partial curve]",
CC(C)C[C@H](NC(=O)c1nc[nH]c1C(=O)NCC(=O)OC(C)(C)C)C(=O)OC(C)(C)C,"20 µM [falling, partial curve, poor fit]",
